Results taken from patent publication US20180140579A1, “SACUBITRIL AND VALSARTAN FOR TREATING METABOLIC DISEASE” (NOVARTIS AG, priority 2015, published 2018).
At least one compound was matched to its structure with a doubt left.

System: patients with mild-to-moderate hypertension and abdominal adiposity
Test: Whole-body lipolysis, [1,1,2,3,3-2H]-glycerol tracer kinetics
Assay type: in vivo, human
Settings: 8 weeks treatment; [95% CI]; LCZ696 p=0.045

SMILES: CCOC(=O)C1=C(COCCN)NC(C)=C(C(=O)OC)C1c1ccccc1Cl (stereo not shown) [Amlodipine, reference compound]
- Whole-body glycerol release (rate of appearance), geometric mean ratio Day 57 versus Day 1: not significantly affected
